The other results are listed elsewhere or left out.
Key:
Test in all cases: log2 fold change, soluble protein after heating vs DMSO (PISA); higher = thermal stabilisation; K562 cells, 10 uM, 30 min; active = over 0.2 and 3.5 SD of the protein, either way, in both replicates (recomputed)
[1] = compound: COC1=CC=C(C=C1)CN2C=CC3=C2C=C(C=C3)C(=O)NO
Method in brief: (§1)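 Thermal stability values are relative to control samples and come from duplicates. They are expressed as log2 fold changes. For measurement, K562 cells (2×10^6 cells/mL) received 10 μM compound for 30 min, and aliquots were heated for 3 min over 48°C-58°C, pooled, and extracted at 4°C in PBS with 0.5% NP-40. Soluble protein, the supernatant after 21,000xg for 90 min, was quantified by TMTpro 16plex LC-MS/MS with equalised channel sums.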

By UniProt entry, the sequences of proteins in these tests, tags left out. Where a name states a change or a piece, a line headed by the entry shows the natural chain unless it says otherwise.
UniProt Q8TEV9: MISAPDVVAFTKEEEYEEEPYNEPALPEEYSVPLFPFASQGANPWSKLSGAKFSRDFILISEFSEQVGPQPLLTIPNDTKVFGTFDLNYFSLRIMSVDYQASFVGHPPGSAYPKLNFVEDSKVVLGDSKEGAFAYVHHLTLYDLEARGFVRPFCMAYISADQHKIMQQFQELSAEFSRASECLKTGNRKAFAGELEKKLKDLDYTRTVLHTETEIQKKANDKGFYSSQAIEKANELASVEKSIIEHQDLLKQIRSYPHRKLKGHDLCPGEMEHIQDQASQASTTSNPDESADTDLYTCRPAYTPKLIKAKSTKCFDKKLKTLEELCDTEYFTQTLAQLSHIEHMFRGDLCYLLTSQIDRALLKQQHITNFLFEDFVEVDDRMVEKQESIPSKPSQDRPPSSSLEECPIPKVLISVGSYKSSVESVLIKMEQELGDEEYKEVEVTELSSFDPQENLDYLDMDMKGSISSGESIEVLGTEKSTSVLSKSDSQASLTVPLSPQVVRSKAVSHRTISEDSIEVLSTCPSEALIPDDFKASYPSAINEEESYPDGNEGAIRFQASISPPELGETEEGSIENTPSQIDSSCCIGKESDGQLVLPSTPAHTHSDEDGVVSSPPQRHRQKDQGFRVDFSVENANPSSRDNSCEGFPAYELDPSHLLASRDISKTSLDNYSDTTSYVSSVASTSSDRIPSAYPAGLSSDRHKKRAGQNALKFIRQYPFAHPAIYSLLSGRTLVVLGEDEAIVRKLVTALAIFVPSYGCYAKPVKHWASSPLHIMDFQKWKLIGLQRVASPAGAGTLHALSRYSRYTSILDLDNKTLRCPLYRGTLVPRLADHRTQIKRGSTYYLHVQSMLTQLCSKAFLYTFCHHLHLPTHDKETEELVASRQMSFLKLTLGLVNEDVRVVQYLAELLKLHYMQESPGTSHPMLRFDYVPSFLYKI
UniProt O00193: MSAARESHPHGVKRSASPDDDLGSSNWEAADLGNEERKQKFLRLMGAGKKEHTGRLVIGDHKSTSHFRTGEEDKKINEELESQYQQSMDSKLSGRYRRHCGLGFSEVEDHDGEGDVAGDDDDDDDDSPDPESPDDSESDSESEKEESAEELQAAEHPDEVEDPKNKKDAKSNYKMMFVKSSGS
UniProt O95721: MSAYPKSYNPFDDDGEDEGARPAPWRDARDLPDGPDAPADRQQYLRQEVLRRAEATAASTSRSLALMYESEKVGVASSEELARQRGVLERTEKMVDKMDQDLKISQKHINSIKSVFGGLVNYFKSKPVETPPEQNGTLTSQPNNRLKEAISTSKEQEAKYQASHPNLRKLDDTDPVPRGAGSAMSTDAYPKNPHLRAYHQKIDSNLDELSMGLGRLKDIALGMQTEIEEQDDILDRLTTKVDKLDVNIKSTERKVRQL
UniProt O00161: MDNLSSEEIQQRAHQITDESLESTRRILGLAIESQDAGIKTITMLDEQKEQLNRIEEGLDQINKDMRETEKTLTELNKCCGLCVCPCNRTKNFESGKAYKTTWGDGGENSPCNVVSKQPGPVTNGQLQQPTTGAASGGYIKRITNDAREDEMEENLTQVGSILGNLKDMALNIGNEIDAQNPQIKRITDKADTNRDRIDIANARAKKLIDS
UniProt P0C7P3: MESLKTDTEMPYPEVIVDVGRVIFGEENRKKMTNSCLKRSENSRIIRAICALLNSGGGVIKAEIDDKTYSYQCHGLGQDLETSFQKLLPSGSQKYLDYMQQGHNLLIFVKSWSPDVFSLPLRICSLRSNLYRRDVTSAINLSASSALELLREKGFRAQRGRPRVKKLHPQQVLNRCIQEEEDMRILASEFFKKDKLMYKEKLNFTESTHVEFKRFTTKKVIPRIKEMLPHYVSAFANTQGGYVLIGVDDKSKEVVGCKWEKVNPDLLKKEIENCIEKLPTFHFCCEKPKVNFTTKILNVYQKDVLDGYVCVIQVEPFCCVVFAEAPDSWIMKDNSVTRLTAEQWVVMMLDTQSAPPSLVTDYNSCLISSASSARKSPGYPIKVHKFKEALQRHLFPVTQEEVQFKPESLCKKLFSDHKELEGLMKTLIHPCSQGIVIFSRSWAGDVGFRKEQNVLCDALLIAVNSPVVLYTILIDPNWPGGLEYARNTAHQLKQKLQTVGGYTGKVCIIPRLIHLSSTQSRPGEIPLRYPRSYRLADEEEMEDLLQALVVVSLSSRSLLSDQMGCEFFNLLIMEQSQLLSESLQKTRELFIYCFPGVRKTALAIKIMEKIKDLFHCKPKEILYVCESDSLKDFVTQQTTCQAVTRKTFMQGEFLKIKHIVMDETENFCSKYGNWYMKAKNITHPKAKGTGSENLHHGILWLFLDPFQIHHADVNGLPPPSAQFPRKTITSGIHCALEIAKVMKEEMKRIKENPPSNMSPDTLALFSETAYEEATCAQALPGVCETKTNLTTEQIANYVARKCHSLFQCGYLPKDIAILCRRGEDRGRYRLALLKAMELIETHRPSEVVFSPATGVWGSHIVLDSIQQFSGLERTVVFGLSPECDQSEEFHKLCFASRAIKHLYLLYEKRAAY
UniProt Q15506: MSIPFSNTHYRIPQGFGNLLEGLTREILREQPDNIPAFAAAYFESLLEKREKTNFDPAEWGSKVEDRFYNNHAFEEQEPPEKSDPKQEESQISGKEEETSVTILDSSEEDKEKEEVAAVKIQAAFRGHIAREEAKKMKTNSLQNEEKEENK
UniProt O60271: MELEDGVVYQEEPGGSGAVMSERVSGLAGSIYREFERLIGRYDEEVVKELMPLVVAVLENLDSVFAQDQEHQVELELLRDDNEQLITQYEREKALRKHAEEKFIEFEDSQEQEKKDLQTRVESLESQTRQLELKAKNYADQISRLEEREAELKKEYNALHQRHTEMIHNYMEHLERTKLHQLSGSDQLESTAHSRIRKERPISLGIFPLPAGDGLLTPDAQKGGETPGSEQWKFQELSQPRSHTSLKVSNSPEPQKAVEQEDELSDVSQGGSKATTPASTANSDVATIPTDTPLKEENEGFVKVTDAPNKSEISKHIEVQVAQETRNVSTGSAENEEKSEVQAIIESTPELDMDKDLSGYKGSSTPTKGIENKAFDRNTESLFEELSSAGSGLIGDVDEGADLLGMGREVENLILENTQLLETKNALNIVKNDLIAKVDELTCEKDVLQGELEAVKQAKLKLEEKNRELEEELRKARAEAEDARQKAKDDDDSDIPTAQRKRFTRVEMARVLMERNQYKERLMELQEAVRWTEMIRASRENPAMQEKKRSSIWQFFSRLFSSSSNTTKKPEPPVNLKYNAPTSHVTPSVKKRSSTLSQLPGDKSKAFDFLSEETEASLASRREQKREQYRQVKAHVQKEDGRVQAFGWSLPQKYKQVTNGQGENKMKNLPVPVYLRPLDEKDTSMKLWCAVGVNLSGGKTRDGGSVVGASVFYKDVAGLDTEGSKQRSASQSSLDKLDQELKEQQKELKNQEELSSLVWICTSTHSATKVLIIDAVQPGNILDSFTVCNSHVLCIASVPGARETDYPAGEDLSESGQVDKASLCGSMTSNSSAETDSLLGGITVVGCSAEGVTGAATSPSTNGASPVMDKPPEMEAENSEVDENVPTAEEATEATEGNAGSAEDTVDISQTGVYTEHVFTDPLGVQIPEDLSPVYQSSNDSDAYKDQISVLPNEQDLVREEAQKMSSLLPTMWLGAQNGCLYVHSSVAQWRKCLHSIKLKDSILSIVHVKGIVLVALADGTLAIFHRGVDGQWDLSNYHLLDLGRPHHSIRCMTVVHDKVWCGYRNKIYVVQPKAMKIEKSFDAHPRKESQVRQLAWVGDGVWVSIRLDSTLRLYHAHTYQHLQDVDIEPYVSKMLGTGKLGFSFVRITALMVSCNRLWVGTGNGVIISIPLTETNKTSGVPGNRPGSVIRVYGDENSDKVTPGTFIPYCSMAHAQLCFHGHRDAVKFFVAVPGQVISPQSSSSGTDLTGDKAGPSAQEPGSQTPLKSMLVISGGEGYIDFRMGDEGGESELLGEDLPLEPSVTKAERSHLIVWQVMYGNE
UniProt Q9UQE7: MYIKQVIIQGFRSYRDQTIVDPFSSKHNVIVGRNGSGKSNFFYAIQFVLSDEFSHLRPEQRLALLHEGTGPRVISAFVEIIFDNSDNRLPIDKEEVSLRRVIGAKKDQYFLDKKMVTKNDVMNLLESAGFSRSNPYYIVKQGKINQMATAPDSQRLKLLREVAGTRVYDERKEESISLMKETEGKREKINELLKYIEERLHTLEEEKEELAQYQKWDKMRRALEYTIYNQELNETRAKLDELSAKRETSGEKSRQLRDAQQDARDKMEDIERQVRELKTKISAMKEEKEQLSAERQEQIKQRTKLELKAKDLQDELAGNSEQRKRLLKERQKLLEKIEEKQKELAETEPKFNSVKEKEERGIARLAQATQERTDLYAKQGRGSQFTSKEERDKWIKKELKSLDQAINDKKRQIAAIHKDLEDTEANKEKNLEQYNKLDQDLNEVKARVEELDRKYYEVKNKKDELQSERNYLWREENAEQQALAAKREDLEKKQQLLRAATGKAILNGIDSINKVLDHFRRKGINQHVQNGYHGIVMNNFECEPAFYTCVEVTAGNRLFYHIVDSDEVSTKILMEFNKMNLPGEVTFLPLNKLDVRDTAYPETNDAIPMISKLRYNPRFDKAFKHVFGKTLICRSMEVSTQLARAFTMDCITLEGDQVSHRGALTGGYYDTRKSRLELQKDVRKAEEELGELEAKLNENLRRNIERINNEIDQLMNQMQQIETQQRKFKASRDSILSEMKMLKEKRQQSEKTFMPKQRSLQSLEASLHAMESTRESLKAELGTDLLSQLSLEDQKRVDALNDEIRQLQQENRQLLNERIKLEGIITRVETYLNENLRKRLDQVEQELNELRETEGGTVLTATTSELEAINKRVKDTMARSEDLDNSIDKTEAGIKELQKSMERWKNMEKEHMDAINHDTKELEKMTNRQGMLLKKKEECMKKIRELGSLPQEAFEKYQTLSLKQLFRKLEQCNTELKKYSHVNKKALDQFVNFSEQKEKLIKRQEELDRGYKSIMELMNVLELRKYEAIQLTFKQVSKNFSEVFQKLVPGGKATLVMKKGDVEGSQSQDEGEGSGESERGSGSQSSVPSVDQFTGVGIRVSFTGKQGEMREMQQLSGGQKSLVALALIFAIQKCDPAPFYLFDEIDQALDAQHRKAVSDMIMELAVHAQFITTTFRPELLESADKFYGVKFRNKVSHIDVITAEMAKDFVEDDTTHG
UniProt O60641: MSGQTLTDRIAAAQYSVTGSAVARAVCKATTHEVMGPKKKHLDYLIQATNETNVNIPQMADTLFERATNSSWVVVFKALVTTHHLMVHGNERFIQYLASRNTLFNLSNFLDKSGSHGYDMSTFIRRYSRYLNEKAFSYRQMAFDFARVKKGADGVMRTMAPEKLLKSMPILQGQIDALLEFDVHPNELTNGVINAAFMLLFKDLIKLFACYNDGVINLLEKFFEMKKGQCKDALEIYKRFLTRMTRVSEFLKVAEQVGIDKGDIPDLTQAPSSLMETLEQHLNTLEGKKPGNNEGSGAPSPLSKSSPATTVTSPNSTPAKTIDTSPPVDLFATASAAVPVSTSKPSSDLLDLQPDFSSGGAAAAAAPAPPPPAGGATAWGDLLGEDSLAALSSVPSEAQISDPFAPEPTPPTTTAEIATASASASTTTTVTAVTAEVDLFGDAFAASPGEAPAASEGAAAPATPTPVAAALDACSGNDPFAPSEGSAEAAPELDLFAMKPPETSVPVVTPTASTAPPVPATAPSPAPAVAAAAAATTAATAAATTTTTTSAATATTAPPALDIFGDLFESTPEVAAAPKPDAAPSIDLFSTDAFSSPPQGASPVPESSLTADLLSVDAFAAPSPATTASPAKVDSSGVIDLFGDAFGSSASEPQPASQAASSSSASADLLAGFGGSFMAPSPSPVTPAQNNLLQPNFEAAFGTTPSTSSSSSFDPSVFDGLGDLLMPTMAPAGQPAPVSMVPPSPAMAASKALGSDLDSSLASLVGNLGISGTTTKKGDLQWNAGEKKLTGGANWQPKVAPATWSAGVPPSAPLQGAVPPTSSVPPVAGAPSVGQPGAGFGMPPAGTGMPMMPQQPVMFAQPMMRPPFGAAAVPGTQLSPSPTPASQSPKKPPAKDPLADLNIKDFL
UniProt B2RUZ4: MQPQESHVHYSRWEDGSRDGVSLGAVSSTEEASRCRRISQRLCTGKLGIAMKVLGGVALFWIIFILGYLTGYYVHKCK
UniProt Q12824, whole entry, looked up: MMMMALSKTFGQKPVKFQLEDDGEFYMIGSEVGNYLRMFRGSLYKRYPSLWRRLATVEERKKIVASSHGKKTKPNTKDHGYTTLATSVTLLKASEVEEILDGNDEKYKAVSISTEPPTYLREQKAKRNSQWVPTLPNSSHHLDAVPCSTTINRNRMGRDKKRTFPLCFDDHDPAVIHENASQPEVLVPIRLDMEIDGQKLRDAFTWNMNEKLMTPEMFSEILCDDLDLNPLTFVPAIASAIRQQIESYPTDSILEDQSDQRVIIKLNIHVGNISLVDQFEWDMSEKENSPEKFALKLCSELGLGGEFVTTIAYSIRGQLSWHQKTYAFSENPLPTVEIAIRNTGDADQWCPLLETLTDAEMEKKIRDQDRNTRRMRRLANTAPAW

filanesib = compound: CON(C)C(=O)N1N=C(c2cc(F)ccc2F)S[C@@]1(CCCN)c1ccccc1 [filanesib]
Method in brief: as §1

zotarolimus = compound: CO[C@H]1C[C@@H]2CC[C@@H](C)[C@@](O)(O2)C(=O)C(=O)N2CCCC[C@H]2C(=O)O[C@H]([C@H](C)C[C@@H]2CC[C@H](n3cnnn3)[C@H](OC)C2)CC(=O)[C@H](C)/C=C(\C)[C@@H](O)[C@@H](OC)C(=O)[C@H](C)C[C@H](C)/C=C/C=C/C=C/1C [zotarolimus]
Method in brief: as §1

idasanutlin = compound: COc1cc(C(=O)O)ccc1NC(=O)[C@@H]1N[C@@H](CC(C)(C)C)[C@](C#N)(c2ccc(Cl)cc2F)[C@H]1c1cccc(Cl)c1F [idasanutlin]
Method in brief: as §1

alisertib = compound: COc1cc(Nc2ncc3c(n2)-c2ccc(Cl)cc2C(c2c(F)cccc2OC)=NC3)ccc1C(=O)O [alisertib]
Method in brief: as §1

[2] = compound: COc1cc2nc(-c3cc(F)ccc3O)nc(N[C@@H]3CNC[C@H]3C(C)(C)O)c2cc1OC
Method in brief: as §1

gefitinib = compound: COc1cc2ncnc(Nc3ccc(F)c(Cl)c3)c2cc1OCCCN1CCOCC1 [gefitinib]
Method in brief: as §1

[3] = compound: COc1cccc2cc(-c3nc([C@H]4CC[C@H](C(=O)O)CC4)n4ncnc(N)c34)[nH]c12
Method in brief: as §1

lapatinib = compound: CS(=O)(=O)CCNCc1ccc(-c2ccc3ncnc(Nc4ccc(OCc5cccc(F)c5)c(Cl)c4)c3c2)o1 [lapatinib]
Method in brief: as §1

pictilisib = compound: CS(=O)(=O)N1CCN(Cc2cc3nc(-c4cccc5[nH]ncc45)nc(N4CCOCC4)c3s2)CC1 [pictilisib]
Method in brief: as §1

Target	log2 fold change [1]	log2 fold change (filanesib)	log2 fold change (zotarolimus)	log2 fold change (idasanutlin)	log2 fold change (alisertib)	log2 fold change [2]	log2 fold change (gefitinib)	log2 fold change [3]	log2 fold change (lapatinib)	log2 fold change (pictilisib)
SMCR8 (UniProt Q8TEV9)	inactive: -0.085	inactive: -0.003	inactive: 0.013	inactive: 0.07	inactive: 0.006	inactive: 0.006	inactive: -0.017	inactive: 0.057	inactive: -0.07	inactive: 0.028
SNRPE (UniProt P62304)	inactive: -0.09	inactive: 0.038	inactive: -0.045	inactive: -0.085	inactive: -0.228	inactive: 0.106	inactive: 0.003	inactive: 0.042	inactive: 0.052	inactive: -0.026
SMPD1 (UniProt P17405)	inactive: 0.129	inactive: -0.127		inactive: -0.089	inactive: 0.081	inactive: -0.217		inactive: 0.209	inactive: -0.058	inactive: -0.061
SMAD5 (UniProt Q99717)	inactive: 0.022	inactive: 0.015	inactive: -0.035	inactive: 0.065	inactive: -0.128		inactive: -0.001	inactive: -0.216		inactive: -0.122
SNX17 (UniProt Q15036)	inactive: 0.184	inactive: 0.032	inactive: -0.028	inactive: 0.276		inactive: 0.122	inactive: -0.017		inactive: -0.116	inactive: 0.147
SMARCA4 (UniProt P51532)	inactive: -0.101	inactive: 0.124	inactive: 0.09	inactive: 0.15	inactive: -0.086	inactive: 0.273		inactive: -0.038	active: -0.544	inactive: 0.025
SNX16 (UniProt P57768)	inactive: -0.036	inactive: -0.033	inactive: -0.018		inactive: -0.123	inactive: 0.006	inactive: -0.1	inactive: -0.013	inactive: 0.035	inactive: -0.05
SMG8 isoform 2 (UniProt Q8ND04)	inactive: 0.119	inactive: 0.23	inactive: -0.013	inactive: 0.126		inactive: 0.171	inactive: 0.155		inactive: 0.039	inactive: 0.133
SNU13, A0A3B3IUA2	inactive: -0.229	inactive: 0.053	inactive: -0.163	inactive: -0.093	inactive: -0.331	inactive: 0.121	inactive: -0.008	inactive: 0.066	inactive: -0.15	inactive: 0.166
SMAP (UniProt O00193)	inactive: -0.046	inactive: -0.154	inactive: -0.018	inactive: 0.005	inactive: -0.01	inactive: 0.02	inactive: 0.033	inactive: 0.051	inactive: -0.013	inactive: -0.016
SNF8 (UniProt Q96H20)	inactive: 0.132	inactive: -0.052	inactive: -0.019	inactive: 0.041	inactive: -0.03	inactive: -0.042	inactive: 0	inactive: 0.017	inactive: 0.008	inactive: -0.081
SNAP29 (UniProt O95721)	inactive: 0.03	inactive: -0.043	inactive: -0.075	inactive: -0.003	inactive: -0.074	inactive: -0.023	inactive: -0.021	inactive: 0	inactive: 0.043	inactive: 0.06
SNAP23 isoform 2 (UniProt O00161)	inactive: 0.239	inactive: -0.121			inactive: -0.216	inactive: -0.352		inactive: 0.075	inactive: 0.234	
SNX2 isoform 2 (UniProt O60749)	inactive: 0.258	inactive: -0.234	inactive: 0.022	inactive: -0.054		inactive: 0.462			inactive: 0.041	
SLCO4A1 (UniProt Q96BD0)	inactive: -0.192	inactive: -0.011	inactive: -0.005	inactive: -0.089	inactive: -0.148	inactive: 0.035	inactive: 0.227	inactive: -0.199	inactive: -0.066	inactive: 0.028
SNAP23 (UniProt O00161)	inactive: -0.075	inactive: 0.008	inactive: -0.044	inactive: -0.001	inactive: -0.088	inactive: 0.006	inactive: 0.001	inactive: 0.012	inactive: -0.003	inactive: 0.039

Just log2 fold change (lapatinib) (two entries from above):
Target | log2 fold change (lapatinib)
SNAP23 isoform 2 (UniProt O00161) | inactive: 0.234
SNX2 isoform 2 (UniProt O60749) | inactive: 0.041

Additional entries.

Target	log2 fold change [1]	log2 fold change (filanesib)	log2 fold change (zotarolimus)	log2 fold change (idasanutlin)	log2 fold change (alisertib)	log2 fold change [2]	log2 fold change (gefitinib)	log2 fold change [3]	log2 fold change (lapatinib)	log2 fold change (pictilisib)
SP2 (UniProt Q02086)	inactive: -0.319	inactive: 0.012		inactive: 0.277						
SMC4 (UniProt Q9NTJ3)	inactive: 0	inactive: 0.028	inactive: 0.05	inactive: -0.034	inactive: -0.01	inactive: 0.101	inactive: -0.015	inactive: -0.067	inactive: 0	inactive: 0.015
SMARCA5 (UniProt O60264)	inactive: 0.047	inactive: 0.047	inactive: 0.043	inactive: 0.059	inactive: -0.064	inactive: -0.049	inactive: 0.073	inactive: -0.144	inactive: -0.017	inactive: 0.004
SMG9 (UniProt Q9H0W8)	inactive: 0.019	inactive: 0.034	inactive: 0.063	inactive: -0.014	inactive: -0.236	inactive: 0.045		inactive: 0.273	inactive: -0.17	inactive: 0.008
SLFN14 (UniProt P0C7P3)	inactive: -0.181	inactive: -0.275	inactive: 0.034	inactive: 0.167	inactive: 0.136	inactive: 0.192	inactive: 0.007	inactive: -0.026	inactive: 0.005	inactive: 0.056
SPA17 (UniProt Q15506)	inactive: 0.038	inactive: 0.018	inactive: -0.053	inactive: 0.067	inactive: -0.293	inactive: -0.013	inactive: -0.058	inactive: 0.076	inactive: -0.036	inactive: 0.131
SPAG9 isoform 4 (UniProt O60271)	inactive: -0.02	inactive: 0.078	inactive: -0.076	inactive: -0.006	inactive: 0.062		inactive: -0.007	inactive: -0.112		
SMC3 (UniProt Q9UQE7)	inactive: 0.056	inactive: 0.025	inactive: 0.007	inactive: -0.011	inactive: -0.025	inactive: 0.009	inactive: 0.002	inactive: 0.025	inactive: -0.009	inactive: 0.024
SNAP91 (UniProt O60641)	inactive: 0.075	inactive: -0.068	inactive: -0.046	inactive: -0.081	inactive: -0.166		inactive: 0.013	inactive: 0.043		inactive: -0.07
SON isoform 9 (UniProt P18583)	inactive: -0.049	inactive: 0.047		inactive: 0.052		inactive: 0.207	inactive: 0.118		inactive: 0.081	inactive: -0.086
SMIM1 (UniProt B2RUZ4)	inactive: 0.115	inactive: -0.073	inactive: -0.049	inactive: -0.111	inactive: -0.021	inactive: -0.265	inactive: -0.149	inactive: 0.15	inactive: -0.049	inactive: 0.024
SNX14 (UniProt Q9Y5W7)	inactive: 0.152	inactive: -0.231		inactive: 0.047	inactive: -0.11	inactive: -0.003	inactive: 0.003	inactive: 0.102	inactive: -0.001	
SNX25 (UniProt Q9H3E2)	inactive: 0.022	inactive: 0.046		inactive: -0.133	inactive: -0.036	inactive: 0.013	inactive: -0.144	inactive: 0.151	inactive: -0.125	
SMYD2 (UniProt Q9NRG4)	inactive: -0.238	inactive: 0.106	inactive: -0.009	inactive: -0.144	inactive: 0.173	inactive: 0.022		inactive: -0.018	inactive: -0.066	inactive: 0.007
SMARCB1 (UniProt Q12824)	inactive: -0.116	inactive: 0.026	inactive: 0.136							inactive: 0.424

From the supplement of paper PMC10849652
